For this experiment, the target named is T1, Splicing factor proline- and glutamine-rich (SFPQ) (human (endogenous in HEK293T)) (UniProt P23246).
T1 sequence: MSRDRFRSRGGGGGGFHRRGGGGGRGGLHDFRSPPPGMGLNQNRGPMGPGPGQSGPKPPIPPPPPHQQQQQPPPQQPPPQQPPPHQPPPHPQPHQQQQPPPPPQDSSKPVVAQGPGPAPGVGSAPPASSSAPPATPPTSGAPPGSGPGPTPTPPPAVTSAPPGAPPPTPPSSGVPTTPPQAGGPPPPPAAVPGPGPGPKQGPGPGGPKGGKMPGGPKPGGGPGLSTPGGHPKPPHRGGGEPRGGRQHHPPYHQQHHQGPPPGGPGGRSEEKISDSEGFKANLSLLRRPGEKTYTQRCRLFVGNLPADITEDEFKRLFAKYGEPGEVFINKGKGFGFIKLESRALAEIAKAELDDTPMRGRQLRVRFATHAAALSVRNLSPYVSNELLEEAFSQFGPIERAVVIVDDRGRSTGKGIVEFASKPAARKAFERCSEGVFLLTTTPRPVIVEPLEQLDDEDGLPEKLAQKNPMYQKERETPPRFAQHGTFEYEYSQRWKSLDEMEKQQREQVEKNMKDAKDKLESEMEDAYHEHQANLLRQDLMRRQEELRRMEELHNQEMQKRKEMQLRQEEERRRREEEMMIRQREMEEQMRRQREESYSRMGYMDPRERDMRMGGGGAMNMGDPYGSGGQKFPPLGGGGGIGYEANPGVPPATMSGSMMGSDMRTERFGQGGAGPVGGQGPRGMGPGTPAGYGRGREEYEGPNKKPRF
Description: affinity purification with mass spectrometry; co-IP in HEK293T cells using an SFPQ antibody; protein samples silver stained and analysed by MS.

Amino acid sequences for entries named in this document (tags omitted).
UniProt Q9UKB1: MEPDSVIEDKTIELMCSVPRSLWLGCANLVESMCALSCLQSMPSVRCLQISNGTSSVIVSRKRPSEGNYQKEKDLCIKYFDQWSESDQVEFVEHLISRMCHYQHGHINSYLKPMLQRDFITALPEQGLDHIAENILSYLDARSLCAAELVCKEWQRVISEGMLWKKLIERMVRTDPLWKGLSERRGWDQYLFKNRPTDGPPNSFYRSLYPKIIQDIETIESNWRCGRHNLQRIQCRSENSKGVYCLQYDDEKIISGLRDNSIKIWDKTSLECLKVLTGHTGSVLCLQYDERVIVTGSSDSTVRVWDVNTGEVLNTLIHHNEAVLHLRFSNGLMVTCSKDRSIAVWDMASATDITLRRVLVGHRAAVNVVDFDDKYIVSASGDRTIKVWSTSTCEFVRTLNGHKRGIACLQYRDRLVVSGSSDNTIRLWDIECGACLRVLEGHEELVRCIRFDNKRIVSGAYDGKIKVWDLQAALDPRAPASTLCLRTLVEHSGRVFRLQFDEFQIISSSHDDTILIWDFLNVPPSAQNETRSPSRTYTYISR

No constants are given. Whether binding was seen depends on the method and setting. Binding seen in cells or lysates may run through a third protein. Here binding means that the protein was enriched with, or labelled near, the bait; the list need not be complete.

Consider “F-box and WD repeat domain containing 11 (FBXW11) (from UniProt Q9UKB1 1-542)”, for which the binding entry is “binds”.
